{
  "sequences": {"note": "Protein sequences, listed by entry. Tags and fused reporters are not part of them. Lines headed by an entry give the natural chain unless they say otherwise; changes in a name come on top. Chains listed by the source or under a name are the forms on record and can include a tag or linker. Residues count along the entry.", "Rab11a-His12 (P62491, form named)": "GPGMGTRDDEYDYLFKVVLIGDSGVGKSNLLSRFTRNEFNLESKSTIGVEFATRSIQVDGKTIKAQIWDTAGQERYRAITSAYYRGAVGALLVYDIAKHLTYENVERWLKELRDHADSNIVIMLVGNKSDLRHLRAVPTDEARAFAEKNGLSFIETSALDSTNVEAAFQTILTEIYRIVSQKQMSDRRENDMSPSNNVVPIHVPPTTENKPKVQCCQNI", "UniProt Q9ULV0, residues 1526-1848": "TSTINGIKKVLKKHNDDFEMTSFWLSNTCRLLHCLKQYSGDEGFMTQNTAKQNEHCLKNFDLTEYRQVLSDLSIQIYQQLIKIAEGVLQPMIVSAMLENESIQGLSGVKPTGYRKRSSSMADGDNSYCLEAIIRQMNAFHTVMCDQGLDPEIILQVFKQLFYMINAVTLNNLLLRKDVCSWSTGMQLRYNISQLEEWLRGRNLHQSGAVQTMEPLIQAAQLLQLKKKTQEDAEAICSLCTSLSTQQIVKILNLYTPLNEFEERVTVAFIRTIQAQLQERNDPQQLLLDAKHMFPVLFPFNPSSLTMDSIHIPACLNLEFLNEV", "UniProt Q9Y4I1, residues 1534-1855": "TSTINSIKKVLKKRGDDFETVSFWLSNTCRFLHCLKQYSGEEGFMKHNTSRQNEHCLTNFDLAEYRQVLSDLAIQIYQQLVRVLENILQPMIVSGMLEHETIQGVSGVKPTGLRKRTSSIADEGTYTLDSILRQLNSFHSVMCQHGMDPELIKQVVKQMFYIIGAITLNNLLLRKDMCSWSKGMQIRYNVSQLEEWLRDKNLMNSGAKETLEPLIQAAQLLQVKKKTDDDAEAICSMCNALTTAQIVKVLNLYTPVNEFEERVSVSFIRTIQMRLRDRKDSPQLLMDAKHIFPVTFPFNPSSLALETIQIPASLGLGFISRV"},
  "source": "paper doi:10.1101/129072",
  "target": "Rab11a-His12 (human) (UniProt P62491)",
  "assay": "co-sedimentation",
  "note": "Results are given in words; binding and its absence hold for the method and conditions named.",
  "data": [
    {"substance": "Myo5B-GTD (globular tail domain of human myosin 5b, residues 1526-1848) (from UniProt Q9ULV0 1526-1848) (domain or fragment)", "values": [
      {"measurement": "binding", "value": "no binding (tested: 2 μM)"}
    ]},
    {"substance": "Myo5A-GTD (globular tail domain of human myosin 5a, residues 1534-1855) (from UniProt Q9Y4I1 1534-1855) (domain or fragment)", "values": [
      {"measurement": "binding", "value": "no binding (tested: 2 μM)"}
    ]}
  ]
}
